The supplement of paper PMC8728848
This is one part of the list.

Assays:
[1] = target: Neu5Gc(a2-8)Neu5Gc(a2-6)Gal(b1-4)GlcNAc; assay: glycan array binding signal (z-score within array); higher = stronger binding; settings: glycan notation: IUPAC condensed, linker removed
Procedure, shortened: (§1)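 Glycan array binding is given as a within-array Z-score, which can be read as non-binding when negative. The arrays, 3228 of them, came from the Consortium for Functional Glycomics database and were retained only where the protein sequence was available. Z-scores were averaged across arrays of the same protein sequence at different concentrations or buffers and across linkers.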

[2] = target: Neu5Gc(b2-6)Gal(b1-4)GlcNAc; assay: as above; settings: glycan notation: IUPAC condensed, linker removed
Procedure, shortened: as §1

B1: GS7807G-bfa-506-18-506 (Bacteroides fragilis) (protein)
chain: ASCDKFDEINTDPDATTKVTSSLLATGLLLDITSSSASKSFIYDELLAKQMAWGESMEDYQYNVFGRSGFGGYTTLINAQKMVESVSDDNVNAYDGLAHFIKAYKIFYMSMEMGDLPYEEALQGELGLVRPKYNTQKEVMNFILSDLETAYELFSTAKDFDGDPILGGSISKWKKATTAFQLKVLMHLSKKESDADLKVKERFARIVASGSLMESNEDNLQMKYADKANTVYPFHNTNTKHAGYAMLSTMLIDKFKATGDIRMFYYAKPAKAKLNEGVTADSWDAYIGTDPSLPFEQIEKAYATEQYSGFNARYTDYPSGEPVVRLGYAEQNFILAEAAVRGWISGDASAYYKKAIRAHMEFIASNTPDEEVYHHGHPITEEAIAAFLETPAIQLSGEKEEDIEKILTQRYLASFMQHPYDVYYDYRRTGYPVLPINPATNRNTMNDRLPMRWMYPKSESDYNLEHQNEALERQFGGVDDVNKLMWILQ
**Q.** B1 was tested. Which “glycan array binding signal (z-score)” value [1] did it give?
**A.** -0.393

**Q.** What about the “glycan array binding signal (z-score)” value [2] of the same binder?
**A.** 2.12
